# Measured values taken from PubChem BioAssay AID248 (DTP/NCI, 2004).
# The list is a part of this screen's results and no random one: it is rich in T/C values a quarter to a half above the control, in often repeated tests (any T/C) and in doses without a T/C. Further doses and runs are listed elsewhere. T/C gives the treated animals as a percentage of the vehicle group. Some entries give survivors of the animals treated and no T/C: the source files T/C as zero there, which appears to mark a toxic dose or a test without result, not a measured value. Some doses without a T/C left all or most animals alive at the check, yet need not have been tolerated: survival well below the control is almost never listed, so the zero probably covers shortened survival too. Counts of survivors are from the toxicity check (mostly the fifth day) where no day follows; animals may have died later. Schedules are NCI's codes, read here as Q, the interval in days (D) or hours (H), X, the number of doses. Some schedule codes hold Z or #, which are not explained here. Some molecules as drawn cover several salts, stereoisomers or complexes of the source; a dose is that of the sample tested. Where survival is the endpoint, the PubChem record calls one and a half times the control and up active, and a quarter to a half above the control has no call in these data; cut-offs in other NCI protocols can differ. Some T/C values carry the count of animals alive at the toxicity check (mostly the fifth day); where none is given, no animal had died by that day.
# System: L1210 leukemia ip in BDF1 mice, survival T/C
# Test: NCI In Vivo Anticancer Drug Screen. Data for tumor model L1210 Leukemia (intraperitoneal) in B6D2F1 (BDF1) mice
# Details: T/C endpoint: mean survival time, higher T/C = longer survival
# [1] = dose: 100.0 mg/kg/injection, schedule: Q01DX001 (ip), vehicle: carboxymethylcellulose (CMC)
# [2] = dose: 200.0 mg/kg/injection, schedule: Q01DX001 (ip), vehicle: carboxymethylcellulose (CMC)
# [3] = dose: 400.0 mg/kg/injection, schedule: Q01DX001 (ip), vehicle: carboxymethylcellulose (CMC)
# [4] = dose: 400.0 mg/kg/injection, schedule: Q04DX002 (ip), vehicle: Klucel (hydroxypropylcellulose) (HPC)
# [5] = dose: 100.0 mg/kg/injection, schedule: Q04DX003 (ip), vehicle: Klucel (hydroxypropylcellulose) (HPC)
# [6] = dose: 200.0 mg/kg/injection, schedule: Q04DX003 (ip), vehicle: Klucel (hydroxypropylcellulose) (HPC)
# [7] = dose: 400.0 mg/kg/injection, schedule: Q04DX003 (ip), vehicle: Klucel (hydroxypropylcellulose) (HPC)
# [8] = dose: 400.0 mg/kg/injection, schedule: Q04DX002 (ip), vehicle: saline with Tween-80
# [9] = dose: 200.0 mg/kg/injection, schedule: Q01DX009 (ip), vehicle: saline with Tween-80
# [10] = dose: 400.0 mg/kg/injection, schedule: Q01DX009 (ip), vehicle: saline with Tween-80
smiles,measurement,setting,value
N/N=C(\N)c1cn(C2OC(CO)C(O)C2O)c2ncnc(N)c12 (stereo not given),survivor count,"dose: 10.0 mg/kg/injection, schedule: Q01DX001 (ip), vehicle: carboxymethylcellulose (CMC)",0 of 4
same,survivor count,"dose: 20.0 mg/kg/injection, schedule: Q01DX001 (ip), vehicle: carboxymethylcellulose (CMC)",0 of 4
same,survivor count,"dose: 40.0 mg/kg/injection, schedule: Q01DX001 (ip), vehicle: carboxymethylcellulose (CMC)",0 of 4
same,survivor count,"dose: 80.0 mg/kg/injection, schedule: Q01DX001 (ip), vehicle: carboxymethylcellulose (CMC)",0 of 4
same,survivor count,[1],0 of 4
same,survivor count,[2],0 of 4
same,survivor count,[3],0 of 4
CC(C)C(=O)[O][Sn]([c]1ccccc1)([c]1ccccc1)[c]1ccccc1,survivor count,"dose: 100.0 mg/kg/injection, schedule: Q04DX002 (ip), vehicle: Klucel (hydroxypropylcellulose) (HPC)",3 of 3
same,survivor count,"dose: 200.0 mg/kg/injection, schedule: Q04DX002 (ip), vehicle: Klucel (hydroxypropylcellulose) (HPC)",3 of 3
same,survivor count,[4],3 of 3
O=C1N(Cl)C2C(N1Cl)N(Cl)C(=O)N2Cl (stereo not given),survivor count,[2],0 of 4
same,survivor count,[3],0 of 4
O=C(Nc1ccc(Cl)cc1)N1CC1,survivor count,[5],6 of 6
same,survivor count,[6],0 of 6
same,survivor count,[7],0 of 6
CCCCCCN(CCCCCC)C1=C(Cl)C(=O)c2ccccc2C1=O,survivor count,[1],0 of 4
same,survivor count,[2],0 of 4
same,survivor count,[3],0 of 4
Oc1c(Br)cc(F)cc1Br,survivor count,[8],3 of 3
CN(C)C(=O)NN,survivor count,[9],0 of 6
same,survivor count,[10],0 of 6
Cc1cccnc1C(=O)O,survivor count,"dose: 400.0 mg/kg/injection, schedule: Q01DX001 (ip), vehicle: saline",1 of 4
COc1cc([C@@H]2c3cc4c(cc3[C@H](SC(=N)N)[C@H]3COC(=O)[C@H]23)OCO4)cc(OC)c1OC,survivor count,"dose: 27.0 mg/kg/injection, schedule: Q01DX Z (ip), vehicle: methylcellulose (MC)",0 of 6
same,survivor count,"dose: 40.0 mg/kg/injection, schedule: Q01DX Z (ip), vehicle: carboxymethylcellulose (CMC)",2 of 6
same,survivor count,"dose: 40.0 mg/kg/injection, schedule: Q01DX Z (ip), vehicle: methylcellulose (MC)",3 of 6
same,survivor count,"dose: 60.0 mg/kg/injection, schedule: Q01DX Z (ip), vehicle: carboxymethylcellulose (CMC)",1 of 6
same,survivor count,"dose: 75.0 mg/kg/injection, schedule: Q01DX Z (ip), vehicle: saline",1 of 6
same,survivor count,"dose: 80.0 mg/kg/injection, schedule: Q01DX Z (ip), vehicle: carboxymethylcellulose (CMC)",1 of 6
same,survivor count,"dose: 100.0 mg/kg/injection, schedule: Q01DX009 (ip), vehicle: saline",0 of 6
same,survivor count,"dose: 125.0 mg/kg/injection, schedule: Q01DX Z (ip), vehicle: carboxymethylcellulose (CMC)",0 of 6
same,survivor count,"dose: 300.0 mg/kg/injection, schedule: Q01DX Z (ip), vehicle: saline",0 of 6
same,survivor count,"dose: 300.0 mg/kg/injection, schedule: Q04DX003 (ip), vehicle: saline",1 of 6
CCCN(CCC)P(c1ccccc1)N(CCC)CCC,survivor count,[8],1 of 3
O=[N+]([O-])c1ccc2[nH]c(=S)sc2c1,survivor count,"dose: 100.0 mg/kg/injection, schedule: Q01DX009 (ip), vehicle: Klucel (hydroxypropylcellulose) (HPC)",2 of 6
c1cc[c]([Sn]([S]c2nc3ccccc3s2)([c]2ccccc2)[c]2ccccc2)cc1,survivor count,"dose: 100.0 mg/kg/injection, schedule: Q04DX002 (ip), vehicle: saline with Tween-80",0 of 3
same,survivor count,"dose: 200.0 mg/kg/injection, schedule: Q04DX002 (ip), vehicle: saline with Tween-80",0 of 3
same,survivor count,[8],0 of 3
COc1cc(N(CCCl)CCCl)c(OC)cc1C=Nc1ccc(-c2nc(Cc3ccccc3)sc2C)cc1,T/C,"dose: 13.0 mg/kg/injection, schedule: Q01DX009 (ip), vehicle: other",131 % of control
same,T/C,"dose: 20.0 mg/kg/injection, schedule: Q01DX009 (ip), vehicle: other",138 % of control
same,T/C,"dose: 30.0 mg/kg/injection, schedule: Q01DX009 (ip), vehicle: other",143 % of control
same,T/C,"dose: 44.0 mg/kg/injection, schedule: Q01DX009 (ip), vehicle: carboxymethylcellulose (CMC)",127 % of control
same,T/C,"dose: 50.0 mg/kg/injection, schedule: Q01DX001 (ip), vehicle: carboxymethylcellulose (CMC)",129 % of control
same,T/C,"dose: 66.0 mg/kg/injection, schedule: Q01DX001 (ip), vehicle: carboxymethylcellulose (CMC)",128 % of control
same,T/C,"dose: 66.0 mg/kg/injection, schedule: Q01DX009 (ip), vehicle: other",132 % of control [4 of 6 alive]
same,T/C,"dose: 75.0 mg/kg/injection, schedule: Q01DX001 (ip), vehicle: carboxymethylcellulose (CMC)",141 % of control
same,T/C,[1],130 % of control
same,T/C,"dose: 150.0 mg/kg/injection, schedule: Q01DX001 (ip), vehicle: carboxymethylcellulose (CMC)",142 % of control
same,survivor count,"dose: 150.0 mg/kg/injection, schedule: Q01DX009 (ip), vehicle: carboxymethylcellulose (CMC)",3 of 6
same,survivor count,"dose: 300.0 mg/kg/injection, schedule: Q01DX001 (ip), vehicle: carboxymethylcellulose (CMC)",3 of 6
CS(=O)(=O)Oc1ccc(S(=O)(=O)F)cc1Cl,survivor count,[4],3 of 3
CCCCCn1c(C)cc(/C=C\c2ccc3cc(C)ccc3[n+]2C)c1C,T/C,"dose: 1.0 mg/kg/injection, schedule: Q01DX009 (ip), vehicle: saline sonified",131 % of control [4 of 6 alive]
same,survivor count,"dose: 2.0 mg/kg/injection, schedule: Q01DX009 (ip), vehicle: saline sonified",4 of 6
same,survivor count,"dose: 4.0 mg/kg/injection, schedule: Q01DX001 (ip), vehicle: carboxymethylcellulose (CMC)",2 of 4
same,survivor count,"dose: 6.25 mg/kg/injection, schedule: Q04DX003 (ip), vehicle: saline sonified",1 of 6
same,survivor count,"dose: 8.0 mg/kg/injection, schedule: Q01DX001 (ip), vehicle: carboxymethylcellulose (CMC)",2 of 4
same,survivor count,"dose: 12.5 mg/kg/injection, schedule: Q04DX003 (ip), vehicle: saline sonified",1 of 6
same,survivor count,"dose: 25.0 mg/kg/injection, schedule: Q04DX003 (ip), vehicle: saline sonified",0 of 6
same,survivor count,[5],0 of 6
same,survivor count,[6],0 of 6
same,survivor count,[7],0 of 6
CC(C)c1cc(C(C)C)c(C(=O)Oc2c(Br)cc(Br)cc2Br)c(C(C)C)c1,survivor count,[10],5 of 6
NC(N)=NN=C(CO)CO,T/C,"dose: 15.0 mg/kg/injection, schedule: Q01DX Z (ip), vehicle: methylcellulose (MC)",130 % of control
same,survivor count,"dose: 15.0 mg/kg/injection, schedule: Q01DX Z (ip), vehicle: saline",6 of 6
same,survivor count,"dose: 60.0 mg/kg/injection, schedule: Q01DX Z (ip), vehicle: methylcellulose (MC)",2 of 6
same,survivor count,"dose: 120.0 mg/kg/injection, schedule: Q01DX Z (ip), vehicle: methylcellulose (MC)",0 of 6
same,survivor count,"dose: 240.0 mg/kg/injection, schedule: Q01DX Z (oral), vehicle: methylcellulose (MC)",1 of 6
same,survivor count,"dose: 480.0 mg/kg/injection, schedule: Q01DX Z (oral), vehicle: methylcellulose (MC)",0 of 6
N#CC(OS(=O)(=O)c1ccccc1)c1ccccc1 (stereo not given),survivor count,"dose: 400.0 mg/kg/injection, schedule: Q01DX001 (ip), vehicle: other",1 of 4
Cc1ccc(C(C)C)c(OCC2C(=O)C3CCN2CC3)c1 (stereo not given),survivor count,[5],0 of 6
same,survivor count,[6],0 of 6
same,survivor count,[7],0 of 6
C=Cc1ccc(Oc2ccccc2)cc1,survivor count,[9],4 of 6
CSc1nc(Cl)cc(-c2ccccc2)n1,survivor count,"dose: 100.0 mg/kg/injection, schedule: Q01DX Z (ip), vehicle: methylcellulose (MC)",6 of 6
C[N+](C)(C)C1C2(CCCCC2)NC(=O)C12CCCCC2 (stereo not given),survivor count,"dose: 150.0 mg/kg/injection, schedule: Q01DX001 (ip), vehicle: saline",0 of 6
same,survivor count,"dose: 300.0 mg/kg/injection, schedule: Q01DX001 (ip), vehicle: saline",0 of 6
